Experimental data from article PMC3942490.
Results are given in words; binding and its absence hold for the method and conditions named. In cells and extracts the contact can be indirect. Some entries that bind do so weakly or less than the wild type. Tags and fused reporters may be left off the sequences shown.

Target: T1, GRF6 tagged with the hemagglutinin (HA) epitope (Arabidopsis thaliana) (UniProt P48349)
T1 sequence: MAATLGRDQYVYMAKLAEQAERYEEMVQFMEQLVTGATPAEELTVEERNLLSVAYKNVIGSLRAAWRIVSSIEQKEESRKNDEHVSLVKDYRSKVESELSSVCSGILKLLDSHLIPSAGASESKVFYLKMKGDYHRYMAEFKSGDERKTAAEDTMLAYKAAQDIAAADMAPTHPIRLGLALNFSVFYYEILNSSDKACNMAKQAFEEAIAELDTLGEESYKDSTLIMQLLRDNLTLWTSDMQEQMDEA
Assay: co-IP; fusion proteins transiently coexpressed in N. benthamiana leaves; cleared extracts in TBS with 5 mM DTT, protease and phosphatase inhibitors, incubated 2 h at 4°C with conjugated antibodies (anti-MaBP or anti-HA); washes TBS, TBS 0.5% Triton X-100, TBS 0.3 M NaCl 1% NP-40; Western blot of the immunoprecipitate

B1: MPK11 fused to YFP (protein, UniProt Q9LMM5 1-369)
chain: MSIEKPFFGDDSNRGVSINGGRYVQYNVYGNLFEVSKKYVPPLRPIGRGASGIVCAAWNSETGEEVAIKKIGNAFGNIIDAKRTLREIKLLKHMDHDNVIAIIDIIRPPQPDNFNDVHIVYELMDTDLHHIIRSNQPLTDDHSRFFLYQLLRGLKYVHSANVLHRDLKPSNLLLNANCDLKIGDFGLARTKSETDFMTEYVVTRWYRAPELLLNCSEYTAAIDIWSVGCILGEIMTREPLFPGRDYVQQLRLITELIGSPDDSSLGFLRSDNARRYVRQLPQYPRQNFAARFPNMSVNAVDLLQKMLVFDPNRRITVDEALCHPYLAPLHEYNEEPVCVRPFHFDFEQPSLTEENIKELIYRESVKFNP
In the case of B1, the binding is reported as “binds”.
